Source: US20140080810A1 (Exelixis, Inc., priority 2010, published 2014)
Some of these results come from one statement about several compounds together.

Key:
[1] = molecular target: mTOR/GbL/Raptor (mTORC1) (Homo sapiens, UniProt P42345); experiment: mTOR/GbL/Raptor (mTORC1) ELISA Assay; assay type: biochemical; conditions: 4E-BP1 phosphorylation, 0.2 nM mTORC1, 10 μM ATP; last bin: >= 2,000 nM or not active under the conditions the assay was run; read-out: IC50 in this assay (mTORC1)
Protocol: The measurement of mTORC1 enzyme activity was performed in an ELISA assay format following the phosphorylation of 4E-BP1 protein. All experiments were performed in the 384-well format. Generally, 0.5 μL DMSO containing varying concentrations of the test Compound was mixed with 15 μL enzyme solution. Kinase reactions were initiated with the addition of 15 μL of substrates-containing solution. The assay conditions were as follows; 0.2 nM mTORC1, 10 μM ATP and 50 nM NHis-tagged 4E-BPI in 20 mM Hepes, pH 7.2, 1 mM DTT, 50 mM NaCl, 10 mM MnCl2, 0.02 mg/mL BSA, 0.01% CHAPS, 50 mM β-glycerophosphate. Following an incubation of 120 minutes at ambient temperature, 20 μL of the reaction volume was transferred to a Ni-Chelate-coated 384-well plate. The binding step of the 4E-BP1 protein proceeded for 60 minutes, followed by washing 4 times each with 50 μL of Tris-buffered saline solution (TBS). Anti-phospho-4E-BP1 rabbit-IgG (20 μL, 1:5000) in 5% BSA-TBST (0.2% Tween-20 in TBS) was added and further incubated for 60 minutes. Incubation with a secondary HRP-tagged anti-IgG was similarly performed after washing off the primary antibody (4 washes of 50 μL). Following the final wash step with TBST, 20 μL of SuperSignal ELISA Femto (Pierce Biotechnology) was added and the luminescence measured using an EnVision plate reader.

[2] = molecular target: PI3Kα (Homo sapiens, UniProt P42336); experiment: PI3K Biochemical Assay (ATP consumed, luciferase-luciferin chemiluminescence); conditions: 1 μM ATP, 10 μM PIP2; last bin: >= 2,000 nM or not active under the conditions the assay was run; read-out: IC50 for PI3Kα in this assay
Protocol: PI3Kα activity is measured as the percent of ATP consumed following the kinase reaction using luciferase-luciferin-coupled chemiluminescence. Reactions were conducted in 384-well white, medium binding microtiter plates (Greiner). Kinase reactions were initiated by combining test compounds, ATP, substrate (PIP2), and kinase in a 20 μL volume in a buffer solution. The standard PI3Kalpha assay buffer is composed 50 mM Tris, pH 7.5, 1 mM EGTA, 10 mM MgCl2, 1 mM DTT and 0.03% CHAPS. The standard assay concentrations for enzyme, ATP, and substrate are 1.5 nM, 1 μM, and 10 μM, respectively. The reaction mixture was incubated at ambient temperature for approximately 2 h. Following the kinase reaction, a 10 μL aliquot of luciferase-luciferin mix (Promega Kinase-Glo) was added and the chemiluminescence signal measured using a Victor2 plate reader (Perkin Elmer). Total ATP consumption was limited to 40-60% and IC50 values of control compounds correlate well with literature references. Substituting PI3Kα with PI3Kβ, PI3Kγ, or PI3Kδ, the inhibitory activity of the compounds for the other isoforms of I3K were measured.

Q: Which IC50 [1] does the source give for `COC(=O)Nc1nc2ccc(-c3ccc4c(c3)CN(c3ccnc5cc(OC)c(OC)cc35)CCO4)cc2[nH]1` [Compound 119, methyl (6-{4-[6,7-bis(methyloxy)quinolin-4-yl]-2,3,4,5-tetrahydro-1,4-benzoxazepin-7-yl}-1H-benzimidazol-2-yl)carbamate] here?
A: ≥ 2000 nM

Q: `Cn1ccc2cc(-c3ccc4c(c3)CN(c3ccnc5ccccc35)CCO4)ccc21` [Compound 133, 7-(1-methyl-1H-indol-5-yl)-4-quinolin-4-yl-2,3,4,5-tetrahydro-1,4-benzoxazepine] was tested. Which IC50 [2] did it give?
A: ≥ 2000 nM

Q: `CC1(C)CCc2ncnc(N3CCOc4ccc(-c5cnc(NCc6ccccc6)c(NS(C)(=O)=O)c5)cc4C3)c2C1` [Compound 630, N-{5-[4-(6,6-dimethyl-5,6,7,8-tetrahydroquinazolin-4-yl)-2,3,4,5-tetrahydro-1,4-benzoxazepin-7-yl]-2-[(phethylmethyl)amino]pyridin-3-yl}methanesulfonamide] was tested. Which IC50 [2] did it give?
A: ≥ 2000 nM

Q: Which IC50 [1] does the source give for `Cc1nc2cc(-c3ccc4c(c3)CN(c3nc([C@@H]5CCCN5C(=O)OCc5ccccc5)nc5c3CC(C)(C)CC5)CCO4)cnc2[nH]1` [Compound 645, phenylmethyl (2S)-2-{6,6-dimethyl-4-[7-(2-methyl-3H-imidazo[4,5-b]pyridin-6-yl)-2,3-dihydro-1,4-benzoxazepin-4(5H)-yl]-5,6,7,8-tetrahydroquinazolin-2-yl}pyrrolidine-1-carboxylate] here?
A: ≥ 2000 nM
